The record followed here is PMC7083051.

The chains behind the UniProt entries cited, without tags or fusion partners.
UniProt Q8N6T7: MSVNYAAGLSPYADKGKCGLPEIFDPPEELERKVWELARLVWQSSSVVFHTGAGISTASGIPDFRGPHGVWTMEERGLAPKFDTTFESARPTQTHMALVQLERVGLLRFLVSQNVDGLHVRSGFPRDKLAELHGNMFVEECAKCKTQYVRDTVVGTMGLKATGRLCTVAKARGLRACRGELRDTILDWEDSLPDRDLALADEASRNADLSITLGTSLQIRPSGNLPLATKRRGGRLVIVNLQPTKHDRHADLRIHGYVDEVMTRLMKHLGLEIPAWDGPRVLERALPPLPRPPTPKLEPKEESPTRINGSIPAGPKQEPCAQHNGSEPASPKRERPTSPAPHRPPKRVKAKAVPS

For this assay, the target named is T1, PGC-1α (human (endogenous in HiBEC)) (UniProt Q9UBK2).
T1 sequence: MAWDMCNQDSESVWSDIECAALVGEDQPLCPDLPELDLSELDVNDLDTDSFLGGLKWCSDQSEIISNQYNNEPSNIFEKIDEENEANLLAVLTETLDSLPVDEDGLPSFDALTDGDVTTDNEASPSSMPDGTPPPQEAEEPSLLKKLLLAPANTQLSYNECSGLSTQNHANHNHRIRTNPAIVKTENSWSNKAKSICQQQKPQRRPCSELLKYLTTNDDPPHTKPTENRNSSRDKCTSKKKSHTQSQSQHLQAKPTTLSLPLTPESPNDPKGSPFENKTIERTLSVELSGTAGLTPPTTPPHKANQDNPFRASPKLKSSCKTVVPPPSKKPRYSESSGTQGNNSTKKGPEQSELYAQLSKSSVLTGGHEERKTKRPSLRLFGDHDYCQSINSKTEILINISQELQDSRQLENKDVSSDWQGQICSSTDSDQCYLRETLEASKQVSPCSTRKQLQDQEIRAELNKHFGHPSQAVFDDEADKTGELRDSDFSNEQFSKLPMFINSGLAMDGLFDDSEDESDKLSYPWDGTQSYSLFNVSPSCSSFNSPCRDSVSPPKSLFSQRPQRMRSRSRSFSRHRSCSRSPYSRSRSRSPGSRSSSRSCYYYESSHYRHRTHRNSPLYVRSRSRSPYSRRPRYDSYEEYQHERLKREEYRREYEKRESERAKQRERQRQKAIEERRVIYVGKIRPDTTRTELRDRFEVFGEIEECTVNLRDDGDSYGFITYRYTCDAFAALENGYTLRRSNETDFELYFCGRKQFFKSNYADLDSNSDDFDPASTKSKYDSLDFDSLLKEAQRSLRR
As to the kind of experiment: co-IP; HiBEC total lysates (0.5% NP-40, 150 mM NaCl, pH 7.5); IP with antibody to Sirt6 or PGC-1α at 4 °C for 2 h, then protein A+G sepharose beads; immunoblot for PGC-1α and Sirt6; called the endogenous level. Background: Immunoblotting shows a protein as a band on a membrane.

No constants are given. Whether binding was seen depends on the method and setting. In cells and extracts the contact can be indirect. Some entries that bind do so weakly or less than the wild type.

Turning to Sirt6 (from UniProt Q8N6T7 1-355), the binding result was “binds”.
